The target in the experiment is α1β1 integrin (human (endogenous in OA chondrocytes)) (UniProt P56199+P05556). The experiment is described as follows: co-IP; 100 μg total protein of OA chondrocytes (48 h on unmodified or HNE-modified Col II-coated plates, MR 1:20 to 1:200) precipitated with 1 μg mouse anti-human α1β1 integrin in KLB buffer with 0.5 M NaCl overnight at 4°C, then protein A for two hours; blotted with anti-pFAK or anti-α1β1 integrin.

Amino acid sequences for entries named in this document (tags omitted). A change or cut given only in a name is not applied to a line headed by its entry.
UniProt P56199: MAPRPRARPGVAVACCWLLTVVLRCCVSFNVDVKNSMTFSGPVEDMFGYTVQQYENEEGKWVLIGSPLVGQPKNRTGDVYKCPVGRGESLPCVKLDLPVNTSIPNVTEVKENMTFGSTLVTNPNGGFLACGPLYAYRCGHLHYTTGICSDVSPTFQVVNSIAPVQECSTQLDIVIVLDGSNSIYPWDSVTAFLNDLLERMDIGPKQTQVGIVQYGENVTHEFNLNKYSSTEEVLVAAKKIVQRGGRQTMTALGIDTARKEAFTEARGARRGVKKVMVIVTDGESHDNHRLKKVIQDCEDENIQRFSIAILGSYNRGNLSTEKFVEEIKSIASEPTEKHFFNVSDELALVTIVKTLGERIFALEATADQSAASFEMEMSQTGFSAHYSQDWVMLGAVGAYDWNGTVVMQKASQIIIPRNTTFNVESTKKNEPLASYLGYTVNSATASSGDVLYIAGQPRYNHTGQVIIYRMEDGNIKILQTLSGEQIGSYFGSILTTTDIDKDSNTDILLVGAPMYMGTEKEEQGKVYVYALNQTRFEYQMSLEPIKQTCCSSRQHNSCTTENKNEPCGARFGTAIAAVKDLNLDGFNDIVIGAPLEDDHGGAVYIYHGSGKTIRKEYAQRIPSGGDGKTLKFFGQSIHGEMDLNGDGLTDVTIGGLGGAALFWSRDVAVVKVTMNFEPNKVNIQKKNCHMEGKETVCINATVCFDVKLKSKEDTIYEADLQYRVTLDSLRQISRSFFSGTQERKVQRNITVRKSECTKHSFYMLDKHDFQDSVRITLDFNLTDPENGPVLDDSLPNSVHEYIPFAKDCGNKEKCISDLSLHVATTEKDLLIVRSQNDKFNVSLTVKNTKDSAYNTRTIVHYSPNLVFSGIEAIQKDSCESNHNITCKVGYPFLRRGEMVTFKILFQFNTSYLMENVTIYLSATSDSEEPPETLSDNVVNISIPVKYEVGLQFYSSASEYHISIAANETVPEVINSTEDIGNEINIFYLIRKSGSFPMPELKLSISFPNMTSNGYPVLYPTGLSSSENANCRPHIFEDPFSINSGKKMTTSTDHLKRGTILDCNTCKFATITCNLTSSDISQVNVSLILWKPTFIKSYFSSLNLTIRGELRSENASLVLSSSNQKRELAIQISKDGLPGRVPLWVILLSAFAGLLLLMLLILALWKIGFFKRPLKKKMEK
UniProt P05556: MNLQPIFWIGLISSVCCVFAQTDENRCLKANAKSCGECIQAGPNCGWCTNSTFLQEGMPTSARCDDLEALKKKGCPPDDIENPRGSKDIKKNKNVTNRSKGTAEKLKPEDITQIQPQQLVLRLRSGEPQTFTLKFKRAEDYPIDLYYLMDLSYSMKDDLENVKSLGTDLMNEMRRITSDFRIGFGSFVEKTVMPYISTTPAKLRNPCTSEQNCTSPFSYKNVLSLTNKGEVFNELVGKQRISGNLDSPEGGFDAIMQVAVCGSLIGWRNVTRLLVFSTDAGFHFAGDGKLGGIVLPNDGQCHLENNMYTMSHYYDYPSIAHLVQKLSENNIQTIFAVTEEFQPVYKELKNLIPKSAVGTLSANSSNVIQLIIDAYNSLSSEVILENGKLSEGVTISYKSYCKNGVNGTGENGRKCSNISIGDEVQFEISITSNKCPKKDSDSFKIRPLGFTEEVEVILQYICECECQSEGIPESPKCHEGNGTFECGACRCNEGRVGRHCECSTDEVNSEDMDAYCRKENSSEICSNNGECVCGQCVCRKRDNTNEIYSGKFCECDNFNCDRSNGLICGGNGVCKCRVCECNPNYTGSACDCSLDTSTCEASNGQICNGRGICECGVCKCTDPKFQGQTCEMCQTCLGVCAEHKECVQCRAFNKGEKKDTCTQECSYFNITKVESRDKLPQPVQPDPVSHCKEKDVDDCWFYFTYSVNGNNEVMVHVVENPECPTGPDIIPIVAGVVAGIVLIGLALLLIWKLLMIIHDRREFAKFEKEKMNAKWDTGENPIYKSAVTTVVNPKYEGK
UniProt Q05397: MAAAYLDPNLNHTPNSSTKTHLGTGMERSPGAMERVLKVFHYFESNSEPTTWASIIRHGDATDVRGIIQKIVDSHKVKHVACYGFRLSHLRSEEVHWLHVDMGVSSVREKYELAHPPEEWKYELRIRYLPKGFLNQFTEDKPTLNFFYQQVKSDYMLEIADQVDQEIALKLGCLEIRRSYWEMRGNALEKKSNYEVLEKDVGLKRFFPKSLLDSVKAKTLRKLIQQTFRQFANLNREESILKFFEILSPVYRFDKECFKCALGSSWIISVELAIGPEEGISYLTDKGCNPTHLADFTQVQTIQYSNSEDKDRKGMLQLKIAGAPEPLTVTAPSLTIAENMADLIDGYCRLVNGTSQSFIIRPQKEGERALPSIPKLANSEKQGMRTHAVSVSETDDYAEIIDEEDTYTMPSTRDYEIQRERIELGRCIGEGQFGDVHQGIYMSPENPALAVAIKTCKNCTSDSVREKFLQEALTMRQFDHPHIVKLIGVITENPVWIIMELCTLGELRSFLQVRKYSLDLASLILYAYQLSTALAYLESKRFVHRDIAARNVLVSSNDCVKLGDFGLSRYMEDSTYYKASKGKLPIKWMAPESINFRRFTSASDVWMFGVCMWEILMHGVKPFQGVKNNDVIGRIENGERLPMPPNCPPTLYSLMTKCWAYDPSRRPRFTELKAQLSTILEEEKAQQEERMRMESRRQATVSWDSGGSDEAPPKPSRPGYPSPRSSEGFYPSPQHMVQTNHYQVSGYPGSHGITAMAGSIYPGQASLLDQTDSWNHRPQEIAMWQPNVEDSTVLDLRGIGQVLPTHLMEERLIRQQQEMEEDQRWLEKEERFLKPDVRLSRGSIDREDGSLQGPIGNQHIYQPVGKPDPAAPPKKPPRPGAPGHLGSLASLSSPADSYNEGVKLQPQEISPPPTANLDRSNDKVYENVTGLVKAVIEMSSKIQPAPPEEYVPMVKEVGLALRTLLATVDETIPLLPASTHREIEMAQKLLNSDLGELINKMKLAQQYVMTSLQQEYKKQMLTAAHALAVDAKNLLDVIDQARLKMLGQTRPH

Results are given in words; binding and its absence hold for the method and conditions named. In cells and extracts the contact can be indirect. Some binding calls cover weakened binding; strength is not graded here.

“phosphorylated focal adhesion kinase (from UniProt Q05397 1-1052)”: the binding result is given as “binds”.

Source of the values: paper PMC2991038.
